PubChem BioAssay AID1224828 | NIAID, 2016
Purpose: 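Find genes required for NF-kappaB p65 moving into the nucleus after LPS in mouse macrophages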 (primary screen). Cell system: mouse RAW264.7 G9 macrophage reporter cells (GFP-p65, Tnf promoter-mCherry). Knock-down reagent: siRNA pool against mouse genes, 100 nM. Time to read-out: 2 days siRNA transfection, then 40 min LPS before fixation. Conditions: LPS (Salmonella minnesota R595) at 10 ng/ml. Read-out: 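Microscopy ratio of nuclear to perinuclear-ring GFP-p65 signal, scaled to the plate median; gene score is the average of two replicate robust z-scores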. Scale: p65 translocation robust z-score: higher = more nuclear NF-kappaB p65 after LPS than the plate median; nuclear/cytoplasmic p65 ratio: higher = more nuclear NF-kappaB p65. Call rule: 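Called active when z exceeds 3.3 or falls under -1.56 (median of Tlr4 controls), giving activity score of at least 50; no calls for control wells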. Meaning of the calls: active = hit (p65 shift raised or lowered); inactive = no clear change.
Here is a random part of about 17,000 deposited reagents. Over the whole deposit, 762 (4.5%) got an active call. 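Active calls include both raised and lowered p65 entry, mostly lowered; wells with fewer than 50 cells lack a z-score.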 The raw values are shown without normalisation. A number with no mark means an inactive call.

| target gene | p65 translocation robust z-score | nuclear/cytoplasmic p65 ratio, rep 1 | nuclear/cytoplasmic p65 ratio, rep 2 | low cell count flag |
| --- | --- | --- | --- | --- |
| Pdcd1lg2 (programmed cell death 1 ligand 2) | – | 1.59 | 1.16 | fewer than 50 cells per well; well left out of scoring |
| Atp6v1g3 (ATPase, H+ transporting, lysosomal V1 subunit G3) | 1.02 | 1.79 | 1.62 | enough cells to score |
| Tmsb10 (thymosin beta 10) | – | 1.46 | 1.15 | fewer than 50 cells per well; well left out of scoring |
| Rcn3 (reticulocalbin 3, EF-hand calcium binding domain) | 1.58 | 1.59 | 1.43 | enough cells to score |
| Pcgf6 (polycomb group ring finger 6) | 0.67 | 1.52 | 1.29 | enough cells to score |
| Suv39h2 (suppressor of variegation 3-9 2) | -1.48 | 1.39 | 1.29 | enough cells to score |
| Gnl2 (guanine nucleotide binding protein nucleolar 2) | 0.12 | 1.34 | 1.87 | enough cells to score |
| Trappc9 (trafficking protein particle complex 9) | – | 1.61 | 1.23 | fewer than 50 cells per well; well left out of scoring |
| Cdc20 (cell division cycle 20) | -0.05 | 1.43 | 1.4 | enough cells to score |
| Nfkbid | -1.72 (active) | 1.28 | 1.34 | enough cells to score |
| Oas1g (2'-5' oligoadenylate synthetase 1G) | 0.26 | 1.47 | 1.46 | enough cells to score |
| Pofut1 (protein O-fucosyltransferase 1) | -0.49 | 1.31 | 1.16 | enough cells to score |
| Rep15 (RAB15 effector protein) | 1.39 | 1.54 | 1.43 | enough cells to score |
| Ica1 (islet cell autoantigen 1) | -0.12 | 1.6 | 1.36 | enough cells to score |
| Or10a5 (olfactory receptor family 10 subfamily A member 5) | -0.02 | 1.51 | 1.37 | enough cells to score |
| Abat (4-aminobutyrate aminotransferase) | -0.46 | 1.51 | 1.58 | enough cells to score |
| Cdc37 (cell division cycle 37) | 1.28 | 1.72 | 1.47 | enough cells to score |
| Iqcj (IQ motif containing J) | -0.96 | 1.39 | 1.45 | enough cells to score |
| Rsbn1 (rosbin, round spermatid basic protein 1) | – | 1.22 | 1.33 | fewer than 50 cells per well; well left out of scoring |
| Tac1 (tachykinin 1) | 1.14 | 1.66 | 1.7 | enough cells to score |
| Grap2 (GRB2-related adaptor protein 2) | -0.53 | 1.29 | 1.28 | enough cells to score |
| Pcdhga5 (protocadherin gamma subfamily A, 5) | -0.72 | 1.42 | 1.1 | enough cells to score |
| Gsr (glutathione reductase) | -0.44 | 1.34 | 1.35 | enough cells to score |
| Slc29a3 | – | 0 | 1.21 | fewer than 50 cells per well; well left out of scoring |

Reformatted: 4 of the entries above
{"target gene": "Ica1 (islet cell autoantigen 1)", "p65 translocation robust z-score": -0.12, "nuclear/cytoplasmic p65 ratio, rep 1": 1.6, "nuclear/cytoplasmic p65 ratio, rep 2": 1.36, "low cell count flag": "enough cells to score"}
{"target gene": "Or10a5 (olfactory receptor family 10 subfamily A member 5)", "p65 translocation robust z-score": -0.02, "nuclear/cytoplasmic p65 ratio, rep 1": 1.51, "nuclear/cytoplasmic p65 ratio, rep 2": 1.37, "low cell count flag": "enough cells to score"}
{"target gene": "Abat (4-aminobutyrate aminotransferase)", "p65 translocation robust z-score": -0.46, "nuclear/cytoplasmic p65 ratio, rep 1": 1.51, "nuclear/cytoplasmic p65 ratio, rep 2": 1.58, "low cell count flag": "enough cells to score"}
{"target gene": "Cdc37 (cell division cycle 37)", "p65 translocation robust z-score": 1.28, "nuclear/cytoplasmic p65 ratio, rep 1": 1.72, "nuclear/cytoplasmic p65 ratio, rep 2": 1.47, "low cell count flag": "enough cells to score"}
